Source: US20260356826A1, “SALTS OF AMINO QUINAZOLINE DERIVATIVES” (CHIESI FARMACEUTICI S.P.A., priority 2023, published 2026)
Structures can show the parent of a compound that is named as a salt. The name of at least one read-out is uncertain.

Legend:
[1] = Comparative stability at 40 °C and 75% RH at open conditions (UPLC/UV and XRPD); assay type: physicochemical; settings: 40 °C/75% RH open
Procedure: In a second experiment, approximately 100 mg of compound A mesylate salt Form 2 according to Example 2, free base Form A according to Example 1 and esylate salt Form 1 according to Example 6 were stored in three open amber glass vials covered with filter paper to simulate open conditions. The samples were stored in a stability chamber at 75% RH and 40 °C to compare their stability. At the time points 0, 28, 56, 84 days the corresponding samples were removed from the stability chambers. After conditioning at RT, the samples were analyzed by UPLC/UV and XRPD.

[2] = Stability of mesylate salt Form 2 on storage (UPLC/UV/MS and XRPD), open and closed conditions; assay type: physicochemical
Procedure: The samples were dissolved in solvent (water/ACN 40/60) at about 1 mg/mL and diluted at about 0.07 mg/mL.
Approximately 120 mg of mesylate salt Form 2 of Compound A according to Example 2 was stored in a properly labelled open amber glass vial covered with filter paper to simulate open conditions, and in a screw cap glass to simulate closed conditions. The samples were prepared such that a layer of powder was uniformly spread on the bottom of the vial. Approximately 70 mg of powder were weighed in hydroxypropyl methylcellulose (HPMC) capsules size 3 (Capsugel) and for each condition two capsules were stored. The samples were placed at RT in a desiccator with NaBr to reach about 60% RH and in a stability chamber to reach 75% RH at 40 °C. The stability of the mesylate salt Form 2 of Compound A was thereby tested in four distinct conditions: open condition at 25 °C/60% RH, closed condition at 25 °C/60% RH, open condition at 40 °C/75% RH, and closed condition at 40 °C/75% RH. At the time points 0, 14, 28, 56, 84, 168 and 365 days the corresponding samples were removed from the stability chambers. After conditioning at RT, the samples were analyzed by UPLC/UV/MS and XRPD. One or two extra samples were stored for every condition.

COc1cc(-c2ccc(F)cn2)cc2c(N[C@H](C)c3noc(C)n3)ncnc12 [mesylate salt Form 2, (R)-6-(5-fluoropyridin-2-yl)-8-methoxy-N-(1-(5-methyl-1,2,4-oxadiazol-3-yl)ethyl)quinazolin-4-amine]
89.6 % area: % area main peak ([2]; ES+, 25 °C/60% RH open, 28 days)
98.3 % area: % area main peak ([2]; UV, 25 °C/60% RH closed, 28 days) | % area main peak ([2]; UV, 25 °C/60% RH closed, 168 days) | % area main peak ([2]; UV, 25 °C/60% RH closed, 365 days) | % area main peak ([2]; UV, 25 °C/60% RH open, 28 days) | % area main peak ([2]; UV, 25 °C/60% RH open, 168 days) | % area main peak ([2]; UV, 25 °C/60% RH open, 365 days) | % area main peak ([2]; UV, 40 °C/75% RH closed, 168 days) | % area main peak ([2]; UV, 40 °C/75% RH open, 28 days) | % area main peak ([2]; UV, 40 °C/75% RH open, 84 days) | % area main peak ([2]; UV, 40 °C/75% RH open, 365 days)
89.9 % area: % area main peak ([2]; ES+, 25 °C/60% RH closed, 28 days)
90.9 % area: % area main peak ([2]; ES+, 40 °C/75% RH open, 84 days)
90.4 % area: % area main peak ([2]; ES+, 25 °C/60% RH closed, 168 days) | % area main peak ([2]; ES+, 40 °C/75% RH closed, 56 days)
92.0 % area: % area main peak ([2]; ES+, 40 °C/75% RH open, 365 days)
92.1 % area: % area main peak ([2]; ES+, 25 °C/60% RH open, 365 days)
91.5 % area: % area main peak ([2]; ES+, 40 °C/75% RH closed, 168 days)
90.6 % area: % area main peak ([2]; ES+, 25 °C/60% RH open, 14 days) | % area main peak ([2]; ES+, 25 °C/60% RH open, 168 days) | % area main peak ([2]; ES+, 40 °C/75% RH open, 14 days)
90.5 % area: % area main peak ([2]; ES+, 40 °C/75% RH closed, 14 days)
92.2 % area: % area main peak ([2]; ES+, 40 °C/75% RH closed, 365 days)
90.1 % area: % area main peak ([2]; ES+, 25 °C/60% RH closed, 14 days) | % area main peak ([2]; ES+, 25 °C/60% RH open, 84 days)
100.0 % area: % area main peak ([2]; ES−, 25 °C/60% RH closed, 14 days) | % area main peak ([2]; ES−, 25 °C/60% RH closed, 28 days) | % area main peak ([2]; ES−, 25 °C/60% RH closed, 56 days) | % area main peak ([2]; ES−, 25 °C/60% RH closed, 84 days) | % area main peak ([2]; ES−, 25 °C/60% RH closed, 168 days) | % area main peak ([2]; ES−, 25 °C/60% RH closed, 365 days) | % area main peak ([2]; ES−, 25 °C/60% RH open, 14 days) | % area main peak ([2]; ES−, 25 °C/60% RH open, 28 days) | % area main peak ([2]; ES−, 25 °C/60% RH open, 56 days) | % area main peak ([2]; ES−, 25 °C/60% RH open, 84 days) | % area main peak ([2]; ES−, 25 °C/60% RH open, 168 days) | % area main peak ([2]; ES−, 25 °C/60% RH open, 365 days) | % area main peak ([2]; ES−, 40 °C/75% RH closed, 14 days) | % area main peak ([2]; ES−, 40 °C/75% RH closed, 28 days) | % area main peak ([2]; ES−, 40 °C/75% RH closed, 56 days) | % area main peak ([2]; ES−, 40 °C/75% RH closed, 84 days) | % area main peak ([2]; ES−, 40 °C/75% RH closed, 168 days) | % area main peak ([2]; ES−, 40 °C/75% RH closed, 365 days) | % area main peak ([2]; ES−, 40 °C/75% RH open, 14 days) | % area main peak ([2]; ES−, 40 °C/75% RH open, 28 days) | % area main peak ([2]; ES−, 40 °C/75% RH open, 56 days) | % area main peak ([2]; ES−, 40 °C/75% RH open, 84 days) | % area main peak ([2]; ES−, 40 °C/75% RH open, 168 days) | % area main peak ([2]; ES−, 40 °C/75% RH open, 365 days)
98.5 % area: % area main peak ([2]; UV, 25 °C/60% RH closed, 14 days)
85.9 % area: % area main peak ([2]; ES+, 40 °C/75% RH open, 28 days)
93.1 % area: % area main peak ([2]; ES+, 25 °C/60% RH closed, 365 days)
98.4 % area: % area main peak ([2]; UV, 25 °C/60% RH closed, 56 days) | % area main peak ([2]; UV, 25 °C/60% RH closed, 84 days) | % area main peak ([2]; UV, 25 °C/60% RH open, 14 days) | % area main peak ([2]; UV, 25 °C/60% RH open, 56 days) | % area main peak ([2]; UV, 25 °C/60% RH open, 84 days) | % area main peak ([2]; UV, 40 °C/75% RH closed, 14 days) | % area main peak ([2]; UV, 40 °C/75% RH closed, 28 days) | % area main peak ([2]; UV, 40 °C/75% RH closed, 56 days) | % area main peak ([2]; UV, 40 °C/75% RH closed, 84 days) | % area main peak ([2]; UV, 40 °C/75% RH closed, 365 days) | % area main peak ([2]; UV, 40 °C/75% RH open, 14 days) | % area main peak ([2]; UV, 40 °C/75% RH open, 56 days) | % area main peak ([2]; UV, 40 °C/75% RH open, 168 days)
92.5 % area: % area main peak ([2]; ES+, 40 °C/75% RH open, 56 days)
90.3 % area: % area main peak ([2]; ES+, 25 °C/60% RH closed, 84 days)
91.8 % area: % area main peak ([2]; ES+, 40 °C/75% RH closed, 84 days)
89.8 % area: % area main peak ([2]; ES+, 40 °C/75% RH closed, 28 days)
92.8 % area: % area main peak ([2]; ES+, 25 °C/60% RH closed, 56 days)
91.1 % area: % area main peak ([2]; ES+, 40 °C/75% RH open, 168 days)
99.9 % area: % area main peak (LC/UV) ([1]; 28 days, 40320 min) | % area main peak (LC/UV) ([1]; 56 days, 80640 min) | % area main peak (LC/UV) ([1]; 84 days, 120960 min)
93.0 % area: % area main peak ([2]; ES+, 25 °C/60% RH open, 56 days)

COc1cc(-c2ccc(F)cn2)cc2c(N[C@H](C)c3noc(C)n3)ncnc12 [esylate salt Form 1, (R)-6-(5-fluoropyridin-2-yl)-8-methoxy-N-(1-(5-methyl-1,2,4-oxadiazol-3-yl)ethyl)quinazolin-4-amine]
99.9 % area: % area main peak (LC/UV) ([1]; 28 days, 40320 min) | % area main peak (LC/UV) ([1]; 56 days, 80640 min) | % area main peak (LC/UV) ([1]; 84 days, 120960 min)

COc1cc(-c2ccc(F)cn2)cc2c(N[C@H](C)c3noc(C)n3)ncnc12 [free base Form A, (R)-6-(5-fluoropyridin-2-yl)-8-methoxy-N-(1-(5-methyl-1,2,4-oxadiazol-3-yl)ethyl)quinazolin-4-amine]
99.8 % area: % area main peak (LC/UV) ([1]; 28 days, 40320 min) | % area main peak (LC/UV) ([1]; 56 days, 80640 min) | % area main peak (LC/UV) ([1]; 84 days, 120960 min)
